At least one peptide structure holds a part that was inferred or is arguable (an end, a ring closure or a residue). Bridge positions count the residues as written; N and C are the ends. Ends that are not written are not given here.
Tests used:
C. neoformans (C2067) = type: cell-based, Cryptococcus neoformans; settings: 6.5 ppm
[1] = system: Fusarium oxysporum f.sp. vasinfectum and Verticillium dahliae; settings: field conditions; cited from earlier work
[2] = system: yeast, bacteria or mammalian cells; settings: background statement; cited from earlier work
[3] = system: Cryptococcus neoformans (C1065); type: cell-based; settings: 13 ppm

RECKTESNTFPGICITKPPCRKACISEKFTDGHCSKILRRCLCTKPC (disulfide 3-47, 14-34, 20-41, 24-43) [NaD1, reference compound]
inhibition of growth of C. neoformans (C2067) (C. neoformans (C2067)): less than 4% | survival of cotton plants expressing NaD1 versus untransformed control plants [1]: twice as likely to survive | effect on the growth of yeast, bacteria or mammalian cells [2]: no effect | inhibition of growth of Cryptococcus neoformans (C1065) [3]: ~16.7%

From US10174339B2 (priority 2011, dated 2019)
